Results are given in words; binding and its absence hold for the method and conditions named. In cells and extracts the contact can be indirect. A yes stands for co-enrichment or nearness to the bait. Other partners may have been found. For some assays here: Sequences can lack the tags named with a protein.
T1: GFP-Sac1 (D. discoideum) (D. discoideum) (UniProt Q55AW9)
T1 sequence: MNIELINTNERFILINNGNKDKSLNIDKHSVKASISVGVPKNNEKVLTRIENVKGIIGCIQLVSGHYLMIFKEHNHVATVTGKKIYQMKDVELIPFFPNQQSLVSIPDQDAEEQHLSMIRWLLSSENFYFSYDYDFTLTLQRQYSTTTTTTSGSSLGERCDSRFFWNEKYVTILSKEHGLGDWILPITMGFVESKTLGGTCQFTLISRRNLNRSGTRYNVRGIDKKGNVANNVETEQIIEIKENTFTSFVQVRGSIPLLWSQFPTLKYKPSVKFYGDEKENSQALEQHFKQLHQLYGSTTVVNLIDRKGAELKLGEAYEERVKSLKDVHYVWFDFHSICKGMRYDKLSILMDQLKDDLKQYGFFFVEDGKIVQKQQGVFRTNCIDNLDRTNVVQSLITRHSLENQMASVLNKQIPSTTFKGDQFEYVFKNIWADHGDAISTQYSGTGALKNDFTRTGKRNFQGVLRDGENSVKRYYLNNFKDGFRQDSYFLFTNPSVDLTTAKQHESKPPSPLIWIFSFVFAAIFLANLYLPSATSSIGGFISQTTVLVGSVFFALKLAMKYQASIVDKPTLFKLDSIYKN

Amino acid sequences for entries named in this document (tags omitted).
UniProt P53224: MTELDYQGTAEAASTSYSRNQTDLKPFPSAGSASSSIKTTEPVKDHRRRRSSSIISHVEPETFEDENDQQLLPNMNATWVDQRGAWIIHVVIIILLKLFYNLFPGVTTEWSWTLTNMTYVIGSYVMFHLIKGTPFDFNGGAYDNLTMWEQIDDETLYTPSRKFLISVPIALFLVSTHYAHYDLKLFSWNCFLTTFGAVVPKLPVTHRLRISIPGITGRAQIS

T2: ALFA-Sac1 (S. cerevisiae) (S. cerevisiae) (UniProt P32368)
T2 sequence: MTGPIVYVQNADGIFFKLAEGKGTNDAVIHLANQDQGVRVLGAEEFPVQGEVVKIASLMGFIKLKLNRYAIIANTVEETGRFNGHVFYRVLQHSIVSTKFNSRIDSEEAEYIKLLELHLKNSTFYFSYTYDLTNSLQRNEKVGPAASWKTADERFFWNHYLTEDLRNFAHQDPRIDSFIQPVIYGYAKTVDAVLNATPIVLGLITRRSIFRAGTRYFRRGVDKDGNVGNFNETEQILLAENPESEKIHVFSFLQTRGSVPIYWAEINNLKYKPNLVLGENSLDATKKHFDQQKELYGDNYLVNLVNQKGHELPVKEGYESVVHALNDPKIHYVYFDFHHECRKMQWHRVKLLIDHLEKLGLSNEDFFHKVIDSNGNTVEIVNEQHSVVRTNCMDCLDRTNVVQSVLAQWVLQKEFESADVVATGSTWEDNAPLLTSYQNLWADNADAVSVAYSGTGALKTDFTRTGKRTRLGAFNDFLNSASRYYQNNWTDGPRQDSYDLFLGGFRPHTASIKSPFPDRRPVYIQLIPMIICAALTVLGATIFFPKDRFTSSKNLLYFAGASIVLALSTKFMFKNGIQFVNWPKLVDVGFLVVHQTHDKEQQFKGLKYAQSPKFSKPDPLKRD

B1: sptA (D. discoideum SPT subunit) (enzyme, UniProt Q55FL5 1-479)
chain: MFLFDIYNNILYYTKEFIVTSTSPNLFIHGLMAVFIIYLLTKRPFKPRQNDTLTKAEEDELIREWSPIPLTPKSNPLEVLNQTELIIQESEGTHVTINNKKYLNLARSNYLGLINNPEINKISENAIRKYGVGSCGPRGFYGTIDVHLDLEKKTASFMKTPEAVLYSSAYATISSAIPSFSKIGDIIIVDRGVSQPVQVGVSLSRSRIYYFNHNDMDDLQRVLEQTQFKGSKAKIVRKFVVIEGLYYNSGTIAPLPQILKFKEQYKFRLIMDESHSVGVLGSTGRGLTEHYNIDTNLVDILTGSYGNSFSSGGGFCCGSPEVVYHQRLNGVGYVFSASLPPFLACSSTKAIEMLEENPKMLEMLHSNIGELYQGLNKSGALNGLLEITSLPISPVIHLSLLDSKSNKSNRINDELLLQKIVDKAMDYGLLLTRAKYVSAEKFIPKPSIRISVSSNLSSDQIKQSIEIIKKCTSFVLESN
B2: sptB (D. discoideum SPT subunit) (enzyme, UniProt Q54EX5 1-490)
chain: MEDKEDVENVDDVGYLPILFLYIAYAFIIFNGKLAEFIGKLKGERYLHTPEGYAPLFVEFEYFYQRRMYGRIKDAWDRPINSIAGAWIDVMPRASKHYSQRLELTGGKTIKCLNLGSYNYLGFAQNEGPVADKVIDSIYKYGVYTGSTSAEVGLSEPQRDLENLTARFVGKEDAIVFEMGFATNSGTLPALIGKGGLIISDSLNHASLATGCKNTGCKVKVFRHNDSKHLEEVIRESIIQGQPRTHRPWTMILIIIEGIYSMEGEVANLPEILAIKKKYKCYLYIDEAHSIGALGKTGRGIVDYYGIDPKEIDILMGTYTKSFGAIGGYVASDKSLIDHLRQSSFSQVYANSMSPVCAVQALEALRVIMGEDGTDTGAKKLKQLHDNSNYFREKIREMGFVILGNKDSPVIPLMLFNPAKLSAFSRLCLEKHIAVVVVGYPATPLTEPRTRFCISASHTIEDLDWALRQIDEIGDLITLKFHKGKYLKSK
B3: Lcb2 (in yeast lysate) (enzyme, UniProt P40970 1-561)
chain: MSTPANYTRVPLCEPEELPDDIQKENEYGTLDSPGHLYQVKSRHGKPLPEPVVDTPPYYISLLTYLNYLILIILGHVHDFLGMTFQKNKHLDLLEHDGLAPWFSNFESFYVRRIKMRIDDCFSRPTTGVPGRFIRCIDRISHNINEYFTYSGAVYPCMNLSSYNYLGFAQSKGQCTDAALESVDKYSIQSGGPRAQIGTTDLHIKAEKLVARFIGKEDALVFSMGYGTNANLFNAFLDKKCLVISDELNHTSIRTGVRLSGAAVRTFKHGDMVGLEKLIREQIVLGQPKTNRPWKKILICAEGLFSMEGTLCNLPKLVELKKKYKCYLFIDEAHSIGAMGPTGRGVCEIFGVDPKDVDILMGTFTKSFGAAGGYIAADQWIIDRLRLDLTTVSYSESMPAPVLAQTISSLQTISGEICPGQGTERLQRIAFNSRYLRLALQRLGFIVYGVADSPVIPLLLYCPSKMPAFSRMMLQRRIAVVVVAYPATPLIESRVRFCMSASLTKEDIDYLLRHVSEVGDKLNLKSNSGKSSYDGKRQRWDIEEVIRRTPEDCKDDKYFVN

Tests used:
[1] = target: T1, GFP-Sac1 (D. discoideum) (D. discoideum); assay: affinity purification with mass spectrometry
[2] = target: T2, ALFA-Sac1 (S. cerevisiae) (S. cerevisiae); assay: affinity purification with mass spectrometry

binding [1] | binding [2] | Molecule
binds | – | Orm1-like protein 2 (D. discoideum)
– | binds | Orm1 protein (in yeast lysate) (from UniProt P53224 1-222)
binds | – | B1
binds | – | B2
– | binds | B3
